# Some entries share one result that the patent states for a list of compounds.
# Chains of the proteins cited; added tags and fusions are not shown. Residues count along the entry.
# UniProt P07339, 65-412, species assumed: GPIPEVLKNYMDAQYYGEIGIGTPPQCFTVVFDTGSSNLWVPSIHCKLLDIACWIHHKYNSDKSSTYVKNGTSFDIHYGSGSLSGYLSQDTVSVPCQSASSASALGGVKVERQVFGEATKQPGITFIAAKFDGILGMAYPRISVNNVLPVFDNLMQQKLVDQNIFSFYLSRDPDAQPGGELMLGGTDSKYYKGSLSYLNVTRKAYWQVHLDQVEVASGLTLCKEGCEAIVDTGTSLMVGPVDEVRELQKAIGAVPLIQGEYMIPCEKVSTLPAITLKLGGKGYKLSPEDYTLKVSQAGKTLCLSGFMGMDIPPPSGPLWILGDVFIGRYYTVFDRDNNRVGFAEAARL
# Molecular target: Cathepsin D (Homo sapiens, UniProt P07339)
# Experiment: Cathepsin D inhibitory assay
# Type: biochemical
# Details: Asp-2 inhibitory assay versus Cathepsin D inhibitory assay
row,Compound,selectivity for Asp2 over CatD [fold]
1,"CCc1cn2c3c(cc(C(=O)N[C@@H](Cc4cc(F)cc(F)c4)[C@H](O)CNC4CC4)cc13)N(C)S(=O)(=O)CC2.O=CO [Example E39, N-{(1S,2R)-3-(Cyclopropylamino)-1-[(3,5-difluorophenyl)methyl]-2-hydroxypropyl}-7-ethyl-1-methyl-3,4-dihydro-1H-[1,2,5]thiadiazepino[3,4,5-hi]indole-9-carboxamide 2,2-dioxide formate salt]",> 100
2,"CCc1cn2c3c(cc(C(=O)N[C@@H](Cc4ccccc4)[C@H](O)CNCc4cccc(OC(F)(F)F)c4)cc13)N(C)S(=O)(=O)CC2.O=CO [Example E67, 7-Ethyl-N-{(1S,2R)-2-hydroxy-1-(phenylmethyl)-3-[({3-[(trifluoromethyl)oxy]phenyl}methyl)amino]propyl}-1-methyl 3,4-dihydro-1H-[1,2,5]thiadiazepino[3,4,5-hi]indole-9-carboxamide 2,2-dioxide formate salt]",> 100
3,"CCc1cn2c3c(cc(C(=O)N[C@@H](Cc4ccccc4)[C@H](O)CNCc4cccc(C)c4)cc13)N(C)S(=O)(=O)CC2.O=CO [Example E70, 7-Ethyl-N-[(1S,2R)-2-hydroxy-3-{[(3-methylphenyl)methyl]amino}-1-(phenylmethyl)propyl]-1-methyl-3,4-dihydro-1H-[1,2,5]thiadiazepino[3,4,5-hi]indole-9-carboxamide 2,2-dioxide formate salt]",> 100
4,"CCc1cn2c3c(cc(C(=O)N[C@@H](Cc4ccccc4)[C@H](O)CNCc4cnn(CC)c4)cc13)N(C)S(=O)(=O)CC2.O=CO [Example E15, 7-Ethyl-N-[(1S,2R)-3-{[(1-ethyl-1H-pyrazol-4-yl)methyl]amino}-2-hydroxy-1-(phenylmethyl)propyl]-1-methyl-3,4-dihydro-1H-[1,2,5]thiadiazepino[3,4,5-hi]indole-9-carboxamide 2,2-dioxide formate salt]",> 100
5,"CCc1cn2c3c(cc(C(=O)N[C@@H](Cc4ccccc4)[C@H](O)CNCc4cncc(C(=O)NC)c4)cc13)N(C)S(=O)(=O)CC2.O=CO [Example E97, 7-Ethyl-N-[(1S,2R)-2 hydroxy-3-[({5-[(methylamino)carbonyl]-3-pyridinyl}methyl)amino]-1-(phenylmethyl)propyl]-1-methyl-3,4-dihydro-1H-[1,2,5]thiadiazepino[3,4,5-hi]indole-9-carboxamide 2,2-dioxide formate salt]",> 100
6,"CCCc1cn2c3c(cc(C(=O)N[C@@H](Cc4ccccc4)[C@H](O)CNCc4cnn(CC)c4)cc13)N(C)S(=O)(=O)CC2.O=CO [Example E47, N-[(1S,2R)-3-{[(1-Ethyl-1H-pyrazol-4-yl)methyl]amino}-2-hydroxy-1-(phenylmethyl)propyl]-1-methyl-7-propyl-3,4-dihydro-1H-[1,2,5]thiadiazepino[3,4,5-hi]indole-9-carboxamide 2,2-dioxide formate salt]",> 100
7,"CCc1cn2c3c(cc(C(=O)N[C@@H](Cc4ccccc4)[C@H](O)CNCc4cnn(CC)c4)cc13)N(C)S(=O)(=O)C(C)C2.O=CO (stereo partly drawn) [Example E16, 7-Ethyl-N-[(1S,2R)-3-{[(1-ethyl-1H-pyrazol-4-yl)methyl]amino}-2-hydroxy-1-(phenylmethyl)propyl]-1,3-dimethyl-3,4-dihydro-1H-[1,2,5]thiadiazepino[3,4,5-hi]indole-9-carboxamide 2,2-dioxide formate salt]",> 100
8,"CCCc1cn2c3c(cc(C(=O)N[C@@H](Cc4ccccc4)[C@H](O)CNCc4cnn(CC)c4)cc13)N(CC)S(=O)(=O)CC2.O=CO [Example E51, 1-Ethyl-N-[(1S,2R)-3-{[(1-ethyl-1H-pyrazol-4-yl)methyl]amino}-2-hydroxy-1-(phenylmethyl)propyl]-7-propyl-3,4-dihydro-1H-[1,2,5]thiadiazepino[3,4,5-hi]indole-9-carboxamide 2,2-dioxide formate salt]",> 100
9,"CCc1cn2c3c(cc(C(=O)N[C@@H](Cc4ccccc4)[C@H](O)CNCc4cnn(CC(F)(F)F)c4)cc13)N(C)S(=O)(=O)CC2.O=CO [Example E74, 7-Ethyl-N-[(1S,2R)-2-hydroxy-1-(phenylmethyl)-3-({[1-(2,2,2-trifluoroethyl)-1H-pyrazol-4-yl]methyl}amino)propyl]-1-methyl-3,4-dihydro-1H-[1,2,5]thiadiazepino[3,4,5-hi]indole-9-carboxamide 2,2-dioxide formate salt]",> 100

# Reference: US20060229302A1, “Tricyclic indole derivatives and their use in the treatment of alzheimer's disease” (priority 2003, published 2006)
